Assay results reported in PMC11284792 (Journal of Medicinal Chemistry, 2024).

Test: general procedure: solution-phase peptide synthesis; PyBop, DIPEA
Conditions: coupling step

Substance | step yield
(S)-1-(((R)-1-(((S)-1-(benzyloxy)-1-oxoheptan-2-yl)oxy)-1-oxopropan-2-yl)(methyl)amino)-1-oxoheptan-2-yl (6R,9S,12R,15S,18R)-2,2,5,6,11,12,17,18-octamethyl-4,7,10,13,16-pentaoxo-9,15-dipentyl-3-oxa-5,8,11,14,17-pentaazanonadecan-19-oate | 70%
(S)-1-(benzyloxy)-1-oxoheptan-2-yl (6R,9S,12R)-2,2,5,6,11,12-hexamethyl-4,7,10-trioxo-9-pentyl-3-oxa-5,8,11- triazatridecan-13-oate | 81%
Benzyl (6R,9S,12R,15S)-2,2,5,6,8,11,12,14-octamethyl-4,7,10,13-tetraoxo-9,15-dipentyl-3-oxa-5,8,11,14-tetraazahexadecan-16-oate | 51% yield overall
Benzyl (6R,9S,12R,15S)-2,2,5,6,8,11,12-heptamethyl-4,7,10,13-tetraoxo-9,15-dipentyl-3-oxa-5,8,11,14-tetraazahexadecan-16-oate | 68%
Benzyl (6R,9S,12R,15S)-2,2,5,6,8,12,14-heptamethyl-4,7,10,13-tetraoxo-9,15-dipentyl-3-oxa-5,8,11,14-tetraazahexadecan-16-oate | 64–70% yield
Benzyl (6R,9S,12R,15S)-2,2,6,8,11,12,14-heptamethyl-4,7,10,13-tetraoxo-9,15-dipentyl-3-oxa-5,8,11,14-tetraazahexadecan-16-oate | 72% yield
Benzyl (6R,9S,12R,15S)-2,2,6,8,12,14-hexamethyl-4,7,10,13-tetraoxo-9,15-dipentyl-3-oxa-5,8,11,14-tetraazahexadecan-16-oate | 70% and 64–70% yield
Benzyl (6R,9S,12R,15S,18R,21S)-2,2,5,6,8,11,12,14,17,18,20-undecamethyl-4,7,10,13,16,19-hexaoxo-9,15,21-tripentyl-3-oxa-5,8,11,14,17,20-hexaazadocosan-22-oate | 59%
Benzyl (6R,9S,12R,15S,18R,21S)-2,2,5,6,11,12,17,18-octamethyl-4,7,10,13,16,19-hexaoxo-9,15,21-tripentyl-3-oxa-5,8,11,14,17,20-hexaazadocosan-22-oate | 70%
Benzyl (6R,9S,12R,15S,18R,21S,24R,27S)-2,2,5,6,8,11,12,14,17,18,20,23,24,26-tetradecamethyl-4,7,10,13,16,19,22,25-octaoxo-9,15,21,27-tetrapentyl-3-oxa-5,8,11,14,17,20,23,26-octaazaoctacosan-28-oate | 55%
Benzyl (R)-2-(((6R,9R,12R)-2,2,5,6,11,12-hexamethyl-4,7,10-trioxo-9-pentyl-3,8-dioxa-5,11-diazatridecan-13-oyl)oxy) heptanoate | 94%
Benzyl (S)-2-((6R,9S,12R)-N,2,2,5,6,11,12-heptamethyl-4,7,10-trioxo-9-pentyl-3,8-dioxa-5,11-diazatridecan-13- amido)heptanoate | 72%
Benzyl (S)-2-(((6R,9S,12R,15S,18R,21S,24R)-2,2,5,6,11,12,18,24-octamethyl-4,7,10,13,16,19,22-heptaoxo-9,15,21-tripentyl-3,8,14,20-tetraoxa-5,11,17,23-tetraazapentacosan-25-oyl)oxy)heptanoate | 69%
Benzyl (S)-2-(((6R,9S,12R,15S,18R,21S,24R)-2,2,6,11,12,17,18,23,24-nonamethyl-4,7,10,13,16,19,22-heptaoxo-9,15,21-tripentyl-3,8,14,20-tetraoxa-5,11,17,23-tetraazapentacosan-25-oyl)oxy)heptanoate | 80%
Benzyl(6R,9S,12R,15S)-2,2,5,6,11,12-hexamethyl-4,7,10,13-tetraoxo-9,15-dipentyl-3-oxa-5,8,11,14-tetraazahexadecan-16-oate | 94%
Benzyl(6R,9S,12R,15S,18R,21S,24R,27S)-2,2,5,6,11,12,17,18,23,24-decamethyl-4,7,10,13,16,19,22,25-octaoxo-9,15,21,27-tetrapentyl-3-oxa-5,8,11,14,17,20,23,26-octaazaoctacosan-28-oate | 63%

Same assay, conditions: cyclisation step, 3 steps

Substance | cyclisation yield [% yield]
(3R,6S,9R,12S,15R,18S,21R,24S)-1,3,4,7,9,10,13,15,16,19,21-undecamethyl-6,12,18,24-tetrapentyl-1,4,7,10,13,16,19,22-octaazacyclotetracosan-2,5,8,11,14,17,20,23-octaone | 8

Same assay, conditions: cyclisation step, 3 steps from O59

Substance | cyclisation yield [%]
(3S,6R,9S,12R,15S,18R,21S,24R)-1,6,7,12,13,18,19,24-Octamethyl-3,9,15,21-tetrapentyl-1,4,7,10,13,16,19,22-octaazacyclotetracosan-2,5,8,11,14,17,20,23-octaone | 11.0

Same assay, conditions: cyclisation step, 3 steps from linear depsipeptide

Substance | cyclisation yield [%]
(3R,6S,9R,12S,15R,18S,21R,24S)-1,3,4,7,9,10,13,15,16,19,21-undecamethyl-6,12,18,24-tetrapentyl-1,4,7,10,13,16,19,22-octaazacyclotetracosan-2,5,8,11,14,17,20,23-octaone | 7.5

Values joined by “and” are separate entries in the source; they are usually repeats but may differ in a detail not shown here. Identical values can stand only once.
